Results on 37 targets are retold here after the supplement of paper PMC10849652.

Amino acid sequences for entries named in this document (tags omitted). A change or cut given only in a name is not applied to a line headed by its entry.
UniProt Q7RTV0, whole entry, looked up: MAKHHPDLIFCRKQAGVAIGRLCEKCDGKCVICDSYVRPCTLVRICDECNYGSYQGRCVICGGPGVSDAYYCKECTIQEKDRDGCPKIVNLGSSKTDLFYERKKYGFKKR
UniProt Q9UG56: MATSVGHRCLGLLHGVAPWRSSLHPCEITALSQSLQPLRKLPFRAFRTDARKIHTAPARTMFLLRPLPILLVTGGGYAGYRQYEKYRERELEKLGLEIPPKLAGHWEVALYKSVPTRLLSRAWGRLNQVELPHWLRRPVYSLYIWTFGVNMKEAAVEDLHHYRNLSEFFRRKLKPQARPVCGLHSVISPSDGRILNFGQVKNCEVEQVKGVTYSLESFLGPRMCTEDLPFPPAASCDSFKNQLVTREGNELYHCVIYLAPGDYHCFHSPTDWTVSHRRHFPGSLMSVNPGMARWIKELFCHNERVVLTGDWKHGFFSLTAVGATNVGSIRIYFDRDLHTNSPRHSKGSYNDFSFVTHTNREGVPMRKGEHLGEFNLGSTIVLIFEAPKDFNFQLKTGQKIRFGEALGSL
UniProt Q8NEB9, whole entry, looked up: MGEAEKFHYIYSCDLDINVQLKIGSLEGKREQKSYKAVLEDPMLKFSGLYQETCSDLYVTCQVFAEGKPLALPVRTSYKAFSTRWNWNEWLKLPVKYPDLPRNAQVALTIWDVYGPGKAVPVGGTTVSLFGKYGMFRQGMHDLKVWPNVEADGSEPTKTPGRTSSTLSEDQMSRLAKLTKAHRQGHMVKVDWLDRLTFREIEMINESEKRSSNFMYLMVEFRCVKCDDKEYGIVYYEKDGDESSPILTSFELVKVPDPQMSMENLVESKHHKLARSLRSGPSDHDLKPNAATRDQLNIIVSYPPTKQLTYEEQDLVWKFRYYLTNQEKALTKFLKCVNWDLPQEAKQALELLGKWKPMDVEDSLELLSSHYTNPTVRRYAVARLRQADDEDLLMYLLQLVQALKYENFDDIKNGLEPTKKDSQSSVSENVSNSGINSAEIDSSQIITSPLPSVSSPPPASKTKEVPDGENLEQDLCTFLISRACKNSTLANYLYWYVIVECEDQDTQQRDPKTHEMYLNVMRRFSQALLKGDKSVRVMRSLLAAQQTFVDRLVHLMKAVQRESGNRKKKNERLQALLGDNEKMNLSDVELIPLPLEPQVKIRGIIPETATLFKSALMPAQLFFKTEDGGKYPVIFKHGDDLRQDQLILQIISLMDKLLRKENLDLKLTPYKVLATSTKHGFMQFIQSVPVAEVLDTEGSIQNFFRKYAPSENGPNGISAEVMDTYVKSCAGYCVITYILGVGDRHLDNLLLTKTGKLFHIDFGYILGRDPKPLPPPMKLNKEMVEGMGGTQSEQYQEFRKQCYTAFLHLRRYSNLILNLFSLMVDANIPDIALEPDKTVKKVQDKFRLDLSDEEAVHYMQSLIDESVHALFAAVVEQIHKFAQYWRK
UniProt Q9Y2I7: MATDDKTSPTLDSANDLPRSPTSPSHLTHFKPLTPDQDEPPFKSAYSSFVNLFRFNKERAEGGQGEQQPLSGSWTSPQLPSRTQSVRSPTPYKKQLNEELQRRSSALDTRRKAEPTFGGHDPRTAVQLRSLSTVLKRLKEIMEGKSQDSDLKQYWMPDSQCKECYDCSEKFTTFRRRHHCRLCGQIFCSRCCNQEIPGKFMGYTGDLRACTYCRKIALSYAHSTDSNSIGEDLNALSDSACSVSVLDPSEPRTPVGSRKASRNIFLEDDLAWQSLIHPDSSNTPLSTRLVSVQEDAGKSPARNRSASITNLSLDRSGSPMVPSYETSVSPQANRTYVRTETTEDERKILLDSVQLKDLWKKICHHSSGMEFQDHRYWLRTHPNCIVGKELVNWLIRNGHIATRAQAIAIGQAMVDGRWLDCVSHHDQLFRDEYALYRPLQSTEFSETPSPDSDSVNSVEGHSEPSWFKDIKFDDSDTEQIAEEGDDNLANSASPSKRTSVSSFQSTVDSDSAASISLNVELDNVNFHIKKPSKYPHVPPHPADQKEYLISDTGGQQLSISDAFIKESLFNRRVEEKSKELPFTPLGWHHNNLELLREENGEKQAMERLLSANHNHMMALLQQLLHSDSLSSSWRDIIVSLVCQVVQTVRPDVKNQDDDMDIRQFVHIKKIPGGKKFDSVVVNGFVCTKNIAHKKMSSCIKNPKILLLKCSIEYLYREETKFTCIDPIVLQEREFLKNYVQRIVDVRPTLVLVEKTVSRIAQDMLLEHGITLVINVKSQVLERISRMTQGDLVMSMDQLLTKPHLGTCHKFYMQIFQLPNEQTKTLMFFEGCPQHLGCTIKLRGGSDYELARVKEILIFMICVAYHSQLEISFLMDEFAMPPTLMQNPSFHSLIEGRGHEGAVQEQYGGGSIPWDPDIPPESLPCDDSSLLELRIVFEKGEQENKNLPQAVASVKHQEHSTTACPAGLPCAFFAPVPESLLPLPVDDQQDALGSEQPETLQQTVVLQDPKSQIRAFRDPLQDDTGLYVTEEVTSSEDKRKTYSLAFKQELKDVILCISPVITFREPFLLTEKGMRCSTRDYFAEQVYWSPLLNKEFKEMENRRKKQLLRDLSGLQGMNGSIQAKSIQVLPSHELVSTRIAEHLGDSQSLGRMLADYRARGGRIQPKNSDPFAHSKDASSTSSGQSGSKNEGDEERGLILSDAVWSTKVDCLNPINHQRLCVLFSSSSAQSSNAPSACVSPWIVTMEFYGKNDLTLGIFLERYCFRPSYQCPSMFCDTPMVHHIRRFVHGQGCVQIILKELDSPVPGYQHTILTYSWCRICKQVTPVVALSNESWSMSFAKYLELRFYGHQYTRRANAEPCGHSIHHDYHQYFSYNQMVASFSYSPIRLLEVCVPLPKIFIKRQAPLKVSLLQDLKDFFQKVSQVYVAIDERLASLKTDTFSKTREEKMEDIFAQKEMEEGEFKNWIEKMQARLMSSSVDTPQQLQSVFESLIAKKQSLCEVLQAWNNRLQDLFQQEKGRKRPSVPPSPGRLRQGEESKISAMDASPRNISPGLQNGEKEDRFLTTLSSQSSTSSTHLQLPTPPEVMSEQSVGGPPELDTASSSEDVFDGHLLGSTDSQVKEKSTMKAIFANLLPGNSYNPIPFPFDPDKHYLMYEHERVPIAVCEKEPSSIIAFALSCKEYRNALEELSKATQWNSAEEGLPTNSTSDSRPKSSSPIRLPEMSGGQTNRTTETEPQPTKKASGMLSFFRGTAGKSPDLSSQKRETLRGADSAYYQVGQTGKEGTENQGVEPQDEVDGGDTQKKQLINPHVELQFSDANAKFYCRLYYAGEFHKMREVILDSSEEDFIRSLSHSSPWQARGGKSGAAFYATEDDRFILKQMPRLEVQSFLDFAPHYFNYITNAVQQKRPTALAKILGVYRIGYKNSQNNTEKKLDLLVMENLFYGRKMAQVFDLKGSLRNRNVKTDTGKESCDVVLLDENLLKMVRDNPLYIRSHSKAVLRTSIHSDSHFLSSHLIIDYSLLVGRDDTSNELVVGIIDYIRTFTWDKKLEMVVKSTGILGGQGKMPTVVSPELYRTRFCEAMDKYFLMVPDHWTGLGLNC
UniProt P53609, whole entry, looked up: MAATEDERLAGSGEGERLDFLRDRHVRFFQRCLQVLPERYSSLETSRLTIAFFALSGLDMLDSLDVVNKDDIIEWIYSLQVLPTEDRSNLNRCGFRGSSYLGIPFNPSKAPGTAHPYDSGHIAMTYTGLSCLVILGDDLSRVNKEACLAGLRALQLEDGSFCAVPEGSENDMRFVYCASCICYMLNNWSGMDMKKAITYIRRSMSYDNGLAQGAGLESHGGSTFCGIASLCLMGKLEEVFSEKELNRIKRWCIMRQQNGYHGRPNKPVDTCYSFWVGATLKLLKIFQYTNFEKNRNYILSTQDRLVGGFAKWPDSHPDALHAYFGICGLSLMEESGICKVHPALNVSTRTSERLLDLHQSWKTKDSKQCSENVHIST
UniProt P78356: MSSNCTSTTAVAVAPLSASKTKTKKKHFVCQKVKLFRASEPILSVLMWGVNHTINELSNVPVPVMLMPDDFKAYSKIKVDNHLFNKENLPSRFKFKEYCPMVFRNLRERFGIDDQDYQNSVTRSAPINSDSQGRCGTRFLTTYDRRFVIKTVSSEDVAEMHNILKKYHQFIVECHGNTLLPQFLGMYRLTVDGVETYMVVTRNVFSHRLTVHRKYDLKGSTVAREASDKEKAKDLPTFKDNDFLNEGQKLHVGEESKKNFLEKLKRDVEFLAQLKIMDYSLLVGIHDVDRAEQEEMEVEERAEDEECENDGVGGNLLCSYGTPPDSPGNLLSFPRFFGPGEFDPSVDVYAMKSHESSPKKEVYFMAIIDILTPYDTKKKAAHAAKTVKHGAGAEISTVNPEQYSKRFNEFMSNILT
UniProt O60925, whole entry, looked up: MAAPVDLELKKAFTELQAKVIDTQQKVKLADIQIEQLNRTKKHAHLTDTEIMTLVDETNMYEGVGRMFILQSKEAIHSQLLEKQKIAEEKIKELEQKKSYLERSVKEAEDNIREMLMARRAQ
UniProt O95394: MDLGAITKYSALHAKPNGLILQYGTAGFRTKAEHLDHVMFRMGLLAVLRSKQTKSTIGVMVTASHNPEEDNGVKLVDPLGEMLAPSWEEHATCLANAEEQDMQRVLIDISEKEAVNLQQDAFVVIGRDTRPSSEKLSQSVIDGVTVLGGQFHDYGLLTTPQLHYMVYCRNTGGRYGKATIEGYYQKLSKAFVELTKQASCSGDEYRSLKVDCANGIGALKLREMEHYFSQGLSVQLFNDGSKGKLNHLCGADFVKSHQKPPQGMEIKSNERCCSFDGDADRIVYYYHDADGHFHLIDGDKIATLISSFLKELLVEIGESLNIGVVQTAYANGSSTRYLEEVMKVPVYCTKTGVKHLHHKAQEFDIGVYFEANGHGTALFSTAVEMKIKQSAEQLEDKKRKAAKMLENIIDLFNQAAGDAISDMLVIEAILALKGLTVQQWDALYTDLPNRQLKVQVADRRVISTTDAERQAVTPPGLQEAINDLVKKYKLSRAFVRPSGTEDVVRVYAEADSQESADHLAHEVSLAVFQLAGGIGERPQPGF
UniProt O15067: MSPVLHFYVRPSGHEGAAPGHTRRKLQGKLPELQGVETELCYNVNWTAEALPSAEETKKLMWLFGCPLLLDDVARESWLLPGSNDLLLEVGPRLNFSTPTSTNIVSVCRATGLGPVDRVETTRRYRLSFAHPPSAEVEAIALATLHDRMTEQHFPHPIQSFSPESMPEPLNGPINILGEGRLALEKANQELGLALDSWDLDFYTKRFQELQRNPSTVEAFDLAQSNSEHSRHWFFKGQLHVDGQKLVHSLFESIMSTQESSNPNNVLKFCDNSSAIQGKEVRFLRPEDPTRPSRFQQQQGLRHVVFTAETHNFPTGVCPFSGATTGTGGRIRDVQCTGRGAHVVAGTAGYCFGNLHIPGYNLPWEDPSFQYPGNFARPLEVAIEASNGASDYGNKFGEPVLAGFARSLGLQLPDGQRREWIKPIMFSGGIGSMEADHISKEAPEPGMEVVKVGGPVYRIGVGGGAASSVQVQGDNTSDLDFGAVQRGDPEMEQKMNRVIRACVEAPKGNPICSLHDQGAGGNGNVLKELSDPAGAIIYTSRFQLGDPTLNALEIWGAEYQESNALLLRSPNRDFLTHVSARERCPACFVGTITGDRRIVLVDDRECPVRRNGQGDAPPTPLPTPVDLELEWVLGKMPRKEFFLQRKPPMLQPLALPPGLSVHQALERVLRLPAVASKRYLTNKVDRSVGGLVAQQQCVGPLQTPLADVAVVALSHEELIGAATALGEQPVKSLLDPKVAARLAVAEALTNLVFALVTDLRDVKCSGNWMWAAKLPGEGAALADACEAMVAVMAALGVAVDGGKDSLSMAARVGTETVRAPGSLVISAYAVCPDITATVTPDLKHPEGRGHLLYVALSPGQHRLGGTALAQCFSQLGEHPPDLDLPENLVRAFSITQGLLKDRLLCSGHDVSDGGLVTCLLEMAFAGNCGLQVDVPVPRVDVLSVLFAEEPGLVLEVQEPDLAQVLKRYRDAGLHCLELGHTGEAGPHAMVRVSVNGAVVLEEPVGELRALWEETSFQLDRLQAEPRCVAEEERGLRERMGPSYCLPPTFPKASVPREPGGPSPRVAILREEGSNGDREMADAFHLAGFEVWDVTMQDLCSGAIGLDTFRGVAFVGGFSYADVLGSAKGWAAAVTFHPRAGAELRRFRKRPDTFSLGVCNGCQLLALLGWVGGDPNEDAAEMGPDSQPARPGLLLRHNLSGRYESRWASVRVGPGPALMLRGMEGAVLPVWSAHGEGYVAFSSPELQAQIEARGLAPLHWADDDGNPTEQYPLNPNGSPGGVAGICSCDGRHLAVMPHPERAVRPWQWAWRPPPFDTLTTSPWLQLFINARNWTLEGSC
UniProt Q8N4L2: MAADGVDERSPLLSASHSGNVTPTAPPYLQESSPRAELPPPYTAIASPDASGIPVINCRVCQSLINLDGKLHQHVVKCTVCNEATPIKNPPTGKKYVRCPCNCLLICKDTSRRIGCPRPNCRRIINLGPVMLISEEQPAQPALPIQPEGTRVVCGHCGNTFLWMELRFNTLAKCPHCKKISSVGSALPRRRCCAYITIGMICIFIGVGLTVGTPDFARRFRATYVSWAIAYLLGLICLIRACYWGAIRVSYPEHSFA

This is one part of the list.

Compound in the test: COC(=O)[C@H](CCSC)NC(=O)C1=C(C=C(C=C1)NC[C@H](CS)N)C2=CC=CC=C2
Nature of the test: log2 fold change, soluble protein after heating vs DMSO (PISA); higher = thermal stabilisation; K562 cells, 10 uM, 30 min; active = over 0.2 and 3.5 SD of the protein, either way, in both replicates (recomputed). The procedure, abridged:
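For each measurement, 10 μM compound was applied for 30 min to K562 cells at 2×10^6 cells/mL. Aliquots were heated for 3 min across 48°C-58°C, pooled, and extracted in PBS with 0.5% NP-40 at 4°C; the supernatant after 21,000xg for 90 min was soluble protein. This was quantified by TMTpro 16plex LC-MS/MS with channel sums equalised, and thermal stability was reported relative to control samples from duplicates, on a log2 fold-change scale.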
Consider PLD3 (UniProt Q8IV08), for which the log2 fold change is inactive: 0.009.

Turning to PHF5A (UniProt Q7RTV0), the log2 fold change is inactive: 0.023.

For the target PLA2G15 (UniProt Q8NCC3), the log2 fold change is inactive: -0.018.

For the target PIGT (UniProt Q969N2), the log2 fold change was inactive: -0.015.

Turning to PISD (UniProt Q9UG56), the log2 fold change was inactive: 0.028.

As for PIK3C3 (UniProt Q8NEB9), the log2 fold change was inactive: -0.018.

Turning to PHF19 isoform 2 (UniProt Q5T6S3), the log2 fold change was inactive: -0.09.

With PKM (UniProt P14618), the log2 fold change is inactive: 0.011.

Regarding PIP4K2C (UniProt Q8TBX8), the log2 fold change is inactive: -0.113.

As to PEX5 isoform 4 (UniProt P50542), the log2 fold change is inactive: -0.097.

As for PIK3R1 (UniProt P27986), the log2 fold change is inactive: -0.024.

Consider PEX7 (UniProt O00628), for which the log2 fold change is inactive: -0.039.

Consider PIP4K2A (UniProt P48426), for which the log2 fold change is inactive: -0.056.

For PJA2 (UniProt O43164), the log2 fold change is inactive: 0.049.

Regarding PIKFYVE (UniProt Q9Y2I7), the log2 fold change was inactive: -0.025.

As to PI4K2B (UniProt Q8TCG2), the log2 fold change is inactive: -0.099.

For PLCG1 isoform 2 (UniProt P19174), the log2 fold change was inactive: -0.007.

Regarding PGGT1B (UniProt P53609), the log2 fold change was active: 0.227.

For PIR (UniProt O00625), the log2 fold change is inactive: 0.012.

For PHKA2 (UniProt P46019), the log2 fold change was inactive: -0.03.

As to PIP4K2B (UniProt P78356), the log2 fold change was inactive: -0.108.

In the case of PLBD1 (UniProt Q6P4A8), the log2 fold change is inactive: 0.

Take PLBD2 (UniProt Q8NHP8): the log2 fold change was inactive: 0.038.

For the target PFDN1 (UniProt O60925), the log2 fold change is inactive: -0.078.

Take PHKG2 (UniProt P15735): the log2 fold change is inactive: -0.025.

With PIP4P1 isoform 2 (UniProt Q86T03), the log2 fold change was inactive: 0.015.

On to PGM3 isoform 4 (UniProt O95394), for which the log2 fold change is inactive: -0.022.

Consider PGGHG (UniProt Q32M88), for which the log2 fold change is inactive: -0.02.

PIK3CB (UniProt P42338): the log2 fold change is inactive: -0.003.

As for PITRM1 isoform 2 (UniProt Q5JRX3), the log2 fold change is inactive: -0.005.

Turning to PKN1 isoform 2 (UniProt Q16512), the log2 fold change was inactive: -0.014.

For the target PIGG (UniProt Q5H8A4), the log2 fold change was inactive: -0.057.

In the case of PFAS (UniProt O15067), the log2 fold change is inactive: -0.075.

With PHAX (UniProt Q9H814), the log2 fold change was inactive: 0.037.

PIGW (UniProt Q7Z7B1): the log2 fold change is inactive: 0.086.

In the case of PLCB3 (UniProt Q01970), the log2 fold change was inactive: -0.083.

On to PIP4P2 (UniProt Q8N4L2), for which the log2 fold change was inactive: 0.093.
